According to the supplement of paper PMC12823440, “Inhibitors supercharge kinase turnover through native proteolytic circuits” (Nature, 2025):
Counter-ions that a name gives are not always drawn. Some of the results follow. Hit calls seldom repeat between salt and free forms of one compound.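 In K562 cells expressing nanoluciferase-fused kinases, luminescence was recorded at 4 h intervals between 2 and 18 h, normalized as percent of control with DMSO at 100% and a positive control at 0%. A significant (2 sigma) signal drop marks a time point as decreased. The authors' rule for a hit is not shown and takes in more than the number of time points.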

The chains behind the UniProt entries cited, without tags or fusion partners.
UniProt Q05397, whole entry, looked up: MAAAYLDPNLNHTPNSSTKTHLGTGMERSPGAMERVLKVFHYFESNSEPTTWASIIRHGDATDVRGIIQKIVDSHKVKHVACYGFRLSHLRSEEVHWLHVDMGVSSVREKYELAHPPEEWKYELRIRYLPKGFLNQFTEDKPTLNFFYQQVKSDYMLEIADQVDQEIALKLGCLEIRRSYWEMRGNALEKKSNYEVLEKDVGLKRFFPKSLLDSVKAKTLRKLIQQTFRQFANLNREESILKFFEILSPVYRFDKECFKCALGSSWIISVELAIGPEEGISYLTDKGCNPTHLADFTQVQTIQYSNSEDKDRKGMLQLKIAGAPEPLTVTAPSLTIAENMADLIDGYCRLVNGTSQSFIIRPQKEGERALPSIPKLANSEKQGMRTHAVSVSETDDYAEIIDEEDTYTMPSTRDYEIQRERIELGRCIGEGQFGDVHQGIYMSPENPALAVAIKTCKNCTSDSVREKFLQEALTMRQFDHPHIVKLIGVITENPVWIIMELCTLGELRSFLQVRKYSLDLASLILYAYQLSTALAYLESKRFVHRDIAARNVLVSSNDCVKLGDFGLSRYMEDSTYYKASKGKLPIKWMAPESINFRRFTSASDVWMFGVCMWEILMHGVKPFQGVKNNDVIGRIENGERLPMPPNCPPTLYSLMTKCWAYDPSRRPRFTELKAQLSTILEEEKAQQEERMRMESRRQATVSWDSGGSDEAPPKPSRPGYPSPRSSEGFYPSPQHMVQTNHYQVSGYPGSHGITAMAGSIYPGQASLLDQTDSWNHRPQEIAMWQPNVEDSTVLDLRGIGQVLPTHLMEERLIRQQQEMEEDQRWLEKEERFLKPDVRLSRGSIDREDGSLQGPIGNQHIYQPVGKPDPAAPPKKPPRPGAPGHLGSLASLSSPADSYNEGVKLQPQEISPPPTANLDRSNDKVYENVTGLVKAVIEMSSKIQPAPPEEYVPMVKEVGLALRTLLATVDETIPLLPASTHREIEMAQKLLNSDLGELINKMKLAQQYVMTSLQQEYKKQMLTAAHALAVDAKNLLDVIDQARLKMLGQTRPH
UniProt Q14289, whole entry, looked up: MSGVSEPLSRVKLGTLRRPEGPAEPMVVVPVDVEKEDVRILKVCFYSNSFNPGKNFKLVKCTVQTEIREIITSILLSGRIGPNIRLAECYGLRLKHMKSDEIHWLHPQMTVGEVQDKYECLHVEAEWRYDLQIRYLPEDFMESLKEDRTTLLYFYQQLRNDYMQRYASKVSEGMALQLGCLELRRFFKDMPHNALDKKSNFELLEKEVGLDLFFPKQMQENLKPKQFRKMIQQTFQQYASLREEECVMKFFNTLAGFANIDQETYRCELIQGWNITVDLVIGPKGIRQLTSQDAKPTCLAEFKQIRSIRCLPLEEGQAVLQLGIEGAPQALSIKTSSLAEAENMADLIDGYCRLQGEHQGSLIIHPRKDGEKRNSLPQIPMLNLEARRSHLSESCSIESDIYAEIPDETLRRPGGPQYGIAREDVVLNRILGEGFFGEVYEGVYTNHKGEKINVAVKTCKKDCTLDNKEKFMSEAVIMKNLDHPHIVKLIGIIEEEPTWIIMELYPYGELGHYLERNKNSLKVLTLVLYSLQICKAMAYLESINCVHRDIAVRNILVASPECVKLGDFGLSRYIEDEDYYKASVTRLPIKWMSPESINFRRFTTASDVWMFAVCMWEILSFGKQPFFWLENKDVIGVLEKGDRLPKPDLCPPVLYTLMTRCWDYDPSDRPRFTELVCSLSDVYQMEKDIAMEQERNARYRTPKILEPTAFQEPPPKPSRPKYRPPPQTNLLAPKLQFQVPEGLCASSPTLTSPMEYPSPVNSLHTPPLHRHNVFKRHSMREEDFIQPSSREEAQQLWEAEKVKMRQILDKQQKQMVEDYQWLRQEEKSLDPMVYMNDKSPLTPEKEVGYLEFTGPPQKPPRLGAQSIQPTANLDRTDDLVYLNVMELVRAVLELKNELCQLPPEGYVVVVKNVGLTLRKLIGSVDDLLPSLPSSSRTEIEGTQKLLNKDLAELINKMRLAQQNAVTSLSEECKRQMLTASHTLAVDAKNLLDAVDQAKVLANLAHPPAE

target: PTK2 (UniProt Q05397); test: kinase-Nluc reporter destabilization hit call (1 = scored as downregulated) (binary); higher = compound decreases kinase abundance; details: K562; 2-18 h

kinase-Nluc reporter destabilization hit call, inactive:
Cc1ccc(NC(=O)N2CCN(c3nc(N)nc4sc(-c5cccnc5)nc34)CC2)cc1 [PI4KIII beta inhibitor 3] (10 µM) 0, COc1ccc(Cl)cc1N(CC(=O)Nc1ccc2c(c1)OCO2)S(=O)(=O)c1ccccc1 (2.5 µM) 0, CN1CCN(c2ccc(-n3cc(-c4ccncc4OCC4CCNCC4)cn3)cc2)CC1 [MELK-8a (hydrochloride)] (10 µM) 0, CC1=CC(=O)C(C(C)C)=C/C1=N/OC(=O)c1ccccc1C [Poloxin] (2.5 µM) 0, O=C(O)/C=C(\CCc1ccc(Cl)cc1)c1ccccc1 (10 µM) 0, CCOC(=O)c1c(C)[nH]c(C=C2C(=O)Nc3ccccc32)c1C (10 µM) 0, O=C(NC[C@H](O)CO)c1ccncc1Nc1ccc(I)cc1F [Pimasertib] (10 µM) 0, COc1ccc(CCNCc2ccc(OCc3ccc(Cl)nc3)c(OC)c2)cc1OC [SBE13 (Hydrochloride)] (10 µM) 0

target: PTK2B (UniProt Q14289); test: as above; details: K562; 2-18 h

kinase-Nluc reporter destabilization hit call, inactive:
COc1ccc2nc3ccc(OC)cc3c(SCCCN)c2c1 (10 µM) 0, NC(=O)c1sc2c([N+](=O)[O-])cc(C(F)(F)F)cc2[n+]1[O-] [Cyclapolin 9] (10 µM) 0, CS(=O)(=O)c1cccc(CNc2nc(Nc3ccc4c(c3)CCC(=O)N4)ncc2C(F)(F)F)c1 (10 µM) 0, CS(=O)(=O)c1ccc([C@@H](CC2CCCC2)C(=O)Nc2nccs2)cc1 (10 µM) 0, C=CC(=O)Nc1cc(Nc2nccc(-c3cn(C)c4ccccc34)n2)c(OCC(F)(F)F)nc1N(C)CCNC [AST5902  (trimesylate)] (2.5 µM) 0, CO/N=C1/C(c2c(O)[nH]c3cc(Cl)c(Cl)cc23)=Nc2ccccc21 (10 µM) 0, CC(ONC(=O)c1cc(C(F)(F)F)cc(C(F)(F)F)c1)C(=O)Nc1ccc(Cl)cc1 (stereo not given) (2.5 µM) 0, Cc1ccc(C2CC(=O)NC(SCC(=O)Nc3nccs3)=C2C#N)cc1 (stereo not given) [Necrostatin-34] (10 µM) 0, O=CN1CCN(c2ccc(C=C3C(=O)Nc4ccccc43)cc2)CC1 (10 µM) 0, CCCS(=O)(=O)N[C@H]1C[C@@H](N(C)c2ncnc3[nH]ccc23)C1 [Abrocitinib] (10 µM) 0, NC(=O)c1cnc(N[C@@H]2CCCC[C@@H]2N)nc1Nc1cccc(-n2nccn2)c1 (2.5 µM) 0, CS[C@@]1(C(=O)Nc2ccc3[nH]nc(-c4ccc(OC(C)C)nc4)c3c2)CCN(CC(=O)N2CC=C(c3ccc(-c4ncn(C)n4)cc3)CC2)C1 (2.5 µM) 0, O=C(Nc1ccccc1C(=O)NC1CCCCNC1=O)c1cc2ccccc2s1 (stereo not given) (10 µM) 0, O=C(O)c1c[nH]c2cc(Cl)c(-c3ccc(C4(O)CCC4)cc3)cc12 (10 µM) 0, CN(C[C@@H]1COCCO1)S(=O)(=O)Nc1ccc2ccc3ncc(-c4cnn(C)c4)cc3c(=O)c2c1 (2.5 µM) 0, NC(=O)c1ccccc1Nc1ccnc(Nc2cccc(O)c2)n1 (10 µM) 0, Cc1ccc2c(NS(=O)(=O)c3ccccc3Cl)cccc2c1Oc1ncccc1-c1ccnc(N[C@H]2CCCNC2)n1 (2.5 µM) 0, O=C(Nc1ccc(Cl)cc1)C1CN(C(=O)c2cccc(-c3ccco3)c2)CC(F)(F)C1 (stereo not given) (2.5 µM) 0, COc1ccc(CN2CCC(c3ccc4nc(C(=O)N5CCN(Cc6ccc(C(F)(F)F)cc6)CC5)[nH]c4c3)CC2)cn1 (2.5 µM) 0, CC(C)=CCC[C@](C)(O[C@@H]1O[C@H](CO[C@@H]2O[C@H](CO)[C@@H](O)[C@H](O)[C@H]2O)[C@@H](O)[C@H](O)[C@H]1O)[C@H]1CC[C@]2(C)[C@@H]1[C@H](O)C[C@@H]1[C@@]3(C)CC[C@H](O[C@@H]4O[C@H](CO)[C@@H](O)[C@H](O)[C@H]4O[C@@H]4O[C@H](CO)[C@@H](O)[C@H](O)[C@H]4O)C(C)(C)[C@@H]3CC[C@]12C [Ginsenoside Rb1] (10 µM) 0, COc1cc2ncnc(Nc3cc(Br)c(O)c(Br)c3)c2cc1OC (2.5 µM) 0, CO[C@]1(C(=O)N[C@@H](C)c2ccc(-n3cc(F)cn3)nc2)CC[C@H](c2nc(C)cc(Nc3cc(C)[nH]n3)n2)CC1 [Pralsetinib] (10 µM) 0
